The list does not hold the whole screen: it is rich in T/C values a quarter to a half above the control, in often repeated tests (any T/C) and in doses without a T/C. Further doses and runs are listed elsewhere. T/C: endpoint of the treated group in % of that of the vehicle group. Some entries give survivors of the animals treated and no T/C: the source holds a T/C of zero for them, seemingly a mark for toxic or unscored doses. Some survivor counts are full or nearly so, which does not show that the dose was tolerated: survival well below the control is almost never listed, so the zero probably covers shortened survival too. Survivors were counted at the toxicity check, usually on the fifth day, unless a day is given; later deaths do not show. Schedules are NCI's codes, read here as Q, the interval in days (D) or hours (H), X, the number of doses. Some entries were tested several times; their values stand side by side, smallest first. Some structures stand for samples that the source files as different forms (salt, stereo form or complex); doses refer to the form tested. For survival time, this PubChem deposit counts one and a half times the control or more as active, and values a quarter to a half above the control carry no call in these data; other NCI protocols may use other cut-offs. Some T/C values are followed by the survivors on the day toxicity was checked, most often the fifth; without a count, all were alive then.

For the assay, the system named is BDF1 mice, B16 melanoma ip, median survival T/C. Kind of assay: NCI In Vivo Anticancer Drug Screen. Data for tumor model B16 Melanoma (intraperitoneal) in B6D2F1 (BDF1) mice. As to conditions: T/C endpoint: median survival time, higher T/C = longer survival. The method, boiled down:
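Mice with transplantable tumors; drug vs vehicle groups; endpoint survival or tumor size; value = T/C.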

The mark [1] stands for this setting: dose: 12.5 mg/kg/injection, schedule: Q01DX009 (ip), vehicle: saline.
Setting [2] is: dose: 100.0 mg/kg/injection, schedule: Q01DX009 (ip), vehicle: saline.
The mark [3] stands for this setting: dose: 12.5 mg/kg/injection, schedule: Q01DX009 (ip), vehicle: saline with Tween-80.
The mark [4] stands for this setting: dose: 25.0 mg/kg/injection, schedule: Q01DX009 (ip), vehicle: saline with Tween-80.
[5] abbreviates: dose: 50.0 mg/kg/injection, schedule: Q01DX009 (ip), vehicle: saline with Tween-80.
[6] abbreviates: dose: 200.0 mg/kg/injection, schedule: Q01DX009 (ip), vehicle: saline with Tween-80.
Where [7] appears, read: dose: 400.0 mg/kg/injection, schedule: Q01DX009 (ip), vehicle: saline with Tween-80.
[8] abbreviates: dose: 200.0 mg/kg/injection, schedule: Q01DX009 (ip), vehicle: Klucel (hydroxypropylcellulose) (HPC).
The mark [9] stands for this setting: dose: 400.0 mg/kg/injection, schedule: Q01DX009 (ip), vehicle: saline.
Where [10] appears, read: dose: 400.0 mg/kg/injection, schedule: Q01DX009 (ip), vehicle: Klucel (hydroxypropylcellulose) (HPC).

`COc1cccc(/C=C/[N+](=O)[O-])c1`: the survivor count is 8 of 10 (dose: 30.0 mg/kg/injection, schedule: Q01DX009 (ip), vehicle: saline with Tween-80); 7 of 10 (dose: 45.0 mg/kg/injection, schedule: Q01DX009 (ip), vehicle: saline with Tween-80); 6 of 10 (dose: 60.0 mg/kg/injection, schedule: Q01DX009 (ip), vehicle: saline with Tween-80).
With `c1cc[c]([Sn]([c]2ccccc2)([c]2ccccc2)[n]2cccc2)cc1`, the survivor count under setting [1] was 1 of 10; the survivor count (dose: 25.0 mg/kg/injection, schedule: Q01DX009 (ip), vehicle: saline) is reported as 1 of 10; the survivor count (dose: 50.0 mg/kg/injection, schedule: Q01DX009 (ip), vehicle: saline) is 0 of 10; the survivor count under setting [2] is listed as 0 of 10.
`Clc1ccc(/C=C2\c3cc(Cl)ccc3-c3c(Cl)cc(Cl)cc32)cc1`: the survivor count by setting is: under setting [3], 6 of 6; under setting [4], 6 of 6; under setting [5], 6 of 6.
Take `CC(=Nc1ccccc1)C1=C(O)C(Cc2ccccc2)NC1=O` (stereo not given): the survivor count by setting is: under setting [4], 10 of 10; under setting [5], 10 of 10; under setting [6], 1 of 10 and 7 of 10; under setting [7], 0 of 10.
`CC(=O)CC(=O)Oc1ccccc1OC(C)=O`: under setting [8], the survivor count is 8 of 10.
Regarding `CC(=O)Nc1ccc(Nc2ccc(C(=C3C=CC(=[N+](C)CCC#N)C=C3)c3ccc(N(C)CCC#N)cc3)cc2)cc1`, the T/C by setting is: under setting [3], 125 % of control; under setting [4], 134 % of control [9 of 10 alive]. Further, the survivor count was 3 of 10 under setting [5]; 1 of 10 (dose: 100.0 mg/kg/injection, schedule: Q01DX009 (ip), vehicle: saline with Tween-80); 2 of 10 under setting [6]; 1 of 10 under setting [7].
Turning to `CN1CCC(CN2c3ccccc3Sc3ccccc32)C1` (stereo not given), the survivor count is, setting by setting: (dose: 1.56 mg/kg/injection, schedule: Q01DX009 (ip), vehicle: saline) 10 of 10; under setting [2], 3 of 10; (dose: 200.0 mg/kg/injection, schedule: Q01DX009 (ip), vehicle: saline) 0 of 10; under setting [9], 0 of 10.
`O=C1C=C(Nc2ccccc2)c2ccccc2C1=O`: the survivor count by setting is: (dose: 100.0 mg/kg/injection, schedule: Q01DX009 (ip), vehicle: Klucel (hydroxypropylcellulose) (HPC)) 8 of 10; under setting [8], 7 of 10 and 10 of 10; under setting [10], 9 of 10.
For the molecule `CC(C)NNC(=O)c1ccncc1`, the survivor count runs as follows: under setting [2], 10 of 10; under setting [9], 10 of 10.
For `CN(C)c1ccc(C(=C2C=CC(=[N+](C)C)C=C2)c2ccc(N(C)C)cc2)cc1` (tested in a mixture with another compound), for the setting “dose: 5.0 mg/kg/injection, schedule: Q01DX009 (ip), vehicle: saline with Tween-80”, the survivor count is 9 of 10.
For the molecule `[Cl][Pt][Cl].[NH-]C(CO)C(=O)O` (stereo not given), the T/C (dose: 6.25 mg/kg/injection, schedule: Q01DX009 (ip), vehicle: water) is 131 % of control and the T/C (dose: 25.0 mg/kg/injection, schedule: Q01DX009 (ip), vehicle: water) was 138 % of control. Moreover, the survivor count by setting is: (dose: 50.0 mg/kg/injection, schedule: Q01DX009 (ip), vehicle: water) 10 of 10; (dose: 100.0 mg/kg/injection, schedule: Q01DX009 (ip), vehicle: water) 0 of 10.
Consider `NCCCN=c1ccc2c3c1c(O)c1c(O)ccc(=O)c1c3[nH]n2CCNCCO`, for which the survivor count (dose: 16.0 mg/kg/injection, schedule: Q01DX009 (ip), vehicle: water) is reported as 10 of 10.
`CCC1=C[C@H]2CN(CCc3c([nH]c4ccccc34)[C@@](C(=O)OC)(c3cc4c(cc3OC)N(C)[C@H]3[C@@](O)(C(=O)NC)[C@H](OC(C)=O)[C@]5(CC)C=CCN6CC[C@]43[C@@H]65)C2)C1`: the T/C was 132 % of control (dose: 0.03 mg/kg/injection, schedule: Q01DX009 (ip), vehicle: water); 137 % of control (dose: 0.06 mg/kg/injection, schedule: Q01DX009 (ip), vehicle: water); 138 % of control (dose: 0.25 mg/kg/injection, schedule: Q04DX003 (ip), vehicle: water); 129 % of control (dose: 0.4 mg/kg/injection, schedule: Q01DX009 (ip), vehicle: Klucel (hydroxypropylcellulose) (HPC)); 143 % of control [5 of 6 alive] (dose: 0.8 mg/kg/injection, schedule: Q01DX009 (ip), vehicle: Klucel (hydroxypropylcellulose) (HPC)); 137 % of control [9 of 10 alive] (dose: 1.0 mg/kg/injection, schedule: Q04DX003 (ip), vehicle: water). Also, the survivor count (dose: 0.5 mg/kg/injection, schedule: Q01DX009 (ip), vehicle: water) is recorded as 10 of 10; the survivor count (dose: 1.0 mg/kg/injection, schedule: Q01DX009 (ip), vehicle: water) was 7 of 10 and 9 of 10; the survivor count (dose: 2.0 mg/kg/injection, schedule: Q04DX003 (ip), vehicle: water) was 10 of 10; the survivor count (dose: 3.2 mg/kg/injection, schedule: Q01DX009 (ip), vehicle: Klucel (hydroxypropylcellulose) (HPC)) is 6 of 6; the survivor count (dose: 6.4 mg/kg/injection, schedule: Q01DX009 (ip), vehicle: Klucel (hydroxypropylcellulose) (HPC)) is recorded as 4 of 6; the survivor count (dose: 12.8 mg/kg/injection, schedule: Q01DX009 (ip), vehicle: Klucel (hydroxypropylcellulose) (HPC)) is 2 of 6.
In the case of `CCCCCCCCCCCC(c1ccccc1)[N+](C)(C)C` (stereo not given), for the setting “dose: 16.0 mg/kg/injection, schedule: Q01DX009 (ip), vehicle: saline sonified”, the survivor count is given as 5 of 6.
With `CCC(C)(C[NH-])C[NH-].[Cl][Pt+2][Cl]`, the survivor count (dose: 2.0 mg/kg/injection, schedule: Q01DX009 (ip), vehicle: carboxymethylcellulose (CMC)) is given as 5 of 10 on day 10.
For `O=c1[nH]c2ccc(Br)cc2c(=O)o1`, under setting [7], the survivor count is given as 3 of 6.
`Cc1nn(-c2ccccc2)c(N)c1C#N`: the survivor count reads like this: under setting [8], 10 of 10; under setting [10], 0 of 10.
On to `Cc1nc2ccccc2nc1CBr`, for which the survivor count is 10 of 10 (dose: 0.2 mg/kg/injection, schedule: Q01DX009 (ip), vehicle: saline with Tween-80); 5 of 6 under setting [1]; 5 of 10 (dose: 25.0 mg/kg/injection, schedule: Q01DX009 (ip), vehicle: Klucel (hydroxypropylcellulose) (HPC)); 0 of 6 under setting [4]; 0 of 6 under setting [5].
As for `CCC/C=C/C=C\C(=O)O[C@@H]1[C@@H](C)[C@]2(O)[C@@H]3C=C(C)C(=O)[C@H]3CC(COC(C)=O)=C[C@H]2[C@@H]2C(C)(C)[C@]12OC(C)=O`, the survivor count (dose: 12.0 mg/kg/injection, schedule: Q01DX009 (ip), vehicle: saline + alcohol) was 4 of 10.
Take `CC(C)(C)c1cc(C[P+](c2ccccc2)(c2ccccc2)c2ccccc2)cc(C(C)(C)C)c1O`: the survivor count by setting is: (dose: 6.5 mg/kg/injection, schedule: Q04DX003 (ip), vehicle: saline) 10 of 10; (dose: 7.0 mg/kg/injection, schedule: Q01DX009 (ip), vehicle: saline) 9 of 10; (dose: 10.0 mg/kg/injection, schedule: Q01DX009 (ip), vehicle: saline) 5 of 10; (dose: 13.0 mg/kg/injection, schedule: Q04DX003 (ip), vehicle: saline) 10 of 10.
Turning to `CC(=O)NC1c2cc(Cl)ccc2-c2c(Cl)cc(Cl)cc21` (stereo not given), the survivor count under setting [6] is 6 of 6.
Take `Cc1cccc2c(Nc3ccc(NS(C)(=O)=O)cc3)c3ccc([N+](=O)[O-])cc3nc12`: the T/C (dose: 5.3 mg/kg/injection, schedule: Q01DX009 (ip), vehicle: saline with Tween-80) is 130 % of control.

Source of the values: PubChem BioAssay AID192 (DTP/NCI, 2004).
